Results on three molecules are retold here after patent US20150329638A1 (Biogen, published 2015).

Changes are numbered by the printed parent chain. Results are given in words; binding and its absence hold for the method and conditions named. Some results given as binding are weak or reduced against the parent protein; the word gives no strength.

The target of test [1] is cyno monkey DR6 (cyno monkey). In words: binding assay, format not described.
A further test addresses T1, rat DR6 (rat, UniProt D3ZF92 42-655).
T1 construct: Full length rat DR6 expressed on transfected HEK293 cells
T1 sequence: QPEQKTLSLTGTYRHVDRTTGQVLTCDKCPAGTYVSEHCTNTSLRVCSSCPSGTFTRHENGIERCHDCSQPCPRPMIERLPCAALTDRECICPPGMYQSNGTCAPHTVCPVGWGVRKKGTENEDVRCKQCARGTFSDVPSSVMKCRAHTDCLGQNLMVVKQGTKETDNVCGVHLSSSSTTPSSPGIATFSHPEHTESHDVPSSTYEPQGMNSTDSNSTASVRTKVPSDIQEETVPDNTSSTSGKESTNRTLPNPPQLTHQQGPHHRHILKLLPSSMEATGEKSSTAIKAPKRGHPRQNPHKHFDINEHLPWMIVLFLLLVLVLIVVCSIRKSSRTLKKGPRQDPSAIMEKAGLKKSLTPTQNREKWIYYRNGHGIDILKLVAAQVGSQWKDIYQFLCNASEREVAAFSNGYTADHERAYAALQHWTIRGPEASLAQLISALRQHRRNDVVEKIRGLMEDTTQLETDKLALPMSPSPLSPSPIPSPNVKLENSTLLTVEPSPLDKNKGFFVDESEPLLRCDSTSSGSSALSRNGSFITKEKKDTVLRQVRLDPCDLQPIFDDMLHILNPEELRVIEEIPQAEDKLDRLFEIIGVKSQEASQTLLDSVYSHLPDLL
The experiment in a line: binding to rat DR6 (FIG. 6).

B1: M53-E04 (Fab, V domains shown)
VH: EVQLLESGGGLVQPGGSLRLSCAASGFTFSNYEMSWVRQAPGKGLEWVSSIYSSGGETLYADSVKGRFTISRDNSKNTLYLQMNSLRAEDTAVYYCARDGAADYWGQGTLVTVSS
VL: QSELTQPPSASGTPGQWVTISCSGSTSNIGNNYVYWYQQLPGTAPKLLIYTNNQRPSGVPDRFSGSKSGTSASLAISGLRSEDEADYYCATWDDSLYAPVFGGGTKVTVL
notes: The format in the assay (Fab or full IgG) is therefore not certain; also called EO4 antibody; E04 mAb
B1: the binding entry in test [1] was “binds”.

B2: 1P5D10.2 (antibody, V domains shown)
VH: EVQLVESGGGLVKPGGSLKLSCAASGFTFSDYYMYWVRQTPEKRLEWVATISDGGLYTYYQDSVKGRFTISRDNAKNNLYLQMSSLKSEDTAMYYCAREDDYDGDFYTMDYWGQGTSVTVSS
VL: QIVLTQSPAIMSASPGEKVTITCSASSSVSYMHWFQQKPGTSPKLWIYSTSNLASGVPARFSGSGSGTSYSLTISRMEAEDAATYYCQQRSSYPLTFGAGTKLELK
notes: Murine monoclonal antibody from a hybridoma; also called DR6 antagonist monoclonal antibody 5D10; anti-DR6 antibody 5D10
Regarding B2, in test [1], the binding result was “binds”.

B3: 5D10Y57A (antibody, V domains shown)
VH: B2 VH with Y57A
VL: B2 VL
Regarding B3, in the test with rat DR6, the binding entry was “binds”.
